Our source for the EC50 values is patent publication US12227496B2 (BRISTOL-MYERS SQUIBB COMPANY, priority 2019, dated 2025).

Chains of the proteins cited; added tags and fusions are not shown. Residues count along the entry.
UniProt Q96RI1, 262-486 limits assumed: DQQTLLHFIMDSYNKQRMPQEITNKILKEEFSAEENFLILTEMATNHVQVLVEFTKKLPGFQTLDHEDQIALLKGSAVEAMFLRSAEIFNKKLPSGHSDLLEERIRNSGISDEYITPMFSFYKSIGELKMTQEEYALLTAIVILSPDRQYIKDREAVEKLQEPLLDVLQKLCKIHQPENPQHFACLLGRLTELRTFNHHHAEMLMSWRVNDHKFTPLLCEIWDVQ

Structures were worked out from names or drawings and are uncertain.

In this assay the target is human FXR (Homo sapiens, UniProt Q96RI1). The assay can be described thus: transient human FXR/Gal4-luciferase reporter assay. The note with it: read-out: FXR EC50; Gal4-hFXR LBD fusion, luciferase reporter in HEK293 cells; response relative to 8 μM GW-4064. Format: cell-based.

Take `CC(C)(C)c1nc(C23CCC(CN(C(=O)C4CCOCC4)c4cccc(-c5ccc(P(C)(C)=O)cc5)c4)(CC2)CC3)no1`: the EC50 amounted to 1480 nM.
